Data reported in PubChem BioAssay AID248 (DTP/NCI, 2004).
The list is a part of this screen's results and no random one: it is rich in T/C values a quarter to a half above the control, in often repeated tests (any T/C) and in doses without a T/C. Further doses and runs are listed elsewhere. T/C: endpoint of the treated group in % of that of the vehicle group. Some entries give survivors of the animals treated and no T/C: the source files T/C as zero there, which appears to mark a toxic dose or a test without result, not a measured value. Some doses without a T/C left all or most animals alive at the check, yet need not have been tolerated: the source hardly ever lists a survival T/C far under the control, and the zero likely stands for such cases as well. Counts of survivors are from the toxicity check (mostly the fifth day) where no day follows; animals may have died later. Schedules are NCI's codes, taken here to give the interval after Q, in days (D) or hours (H), and the number of doses after X. Where survival is the endpoint, the PubChem record calls one and a half times the control and up active, and a quarter to a half above the control has no call in these data; cut-offs in other NCI protocols can differ. Some entries hold several experiments; the results are listed from low to high. Some T/C values carry the count of animals alive at the toxicity check (mostly the fifth day); where none is given, no animal had died by that day.

Tested on: L1210 leukemia ip in BDF1 mice, survival T/C
Assay: NCI In Vivo Anticancer Drug Screen. Data for tumor model L1210 Leukemia (intraperitoneal) in B6D2F1 (BDF1) mice
Settings: higher T/C = longer survival
[1] = T/C endpoint: mean survival time, dose: 62.0 mg/kg/injection, schedule: Q01DX015 (ip), vehicle: carboxymethylcellulose (CMC)
[2] = T/C endpoint: mean survival time, dose: 200.0 mg/kg/injection, schedule: Q01DX005 (ip), vehicle: saline

## Nc1nc(=S)c2ncn(C3CC(O)C(CO)O3)c2[nH]1 (stereo not drawn)
T/C endpoint: mean survival time, dose: 40.0 mg/kg/injection, schedule: Q01DX001 (ip), vehicle: saline
  T/C: 140 % of control
T/C endpoint: mean survival time, dose: 40.0 mg/kg/injection, schedule: Q04DX003 (ip), vehicle: saline
  T/C: 144 % of control
T/C endpoint: mean survival time, dose: 48.0 mg/kg/injection, schedule: Q01DX005 (oral), vehicle: saline
  T/C: 125 % of control
T/C endpoint: mean survival time, dose: 50.0 mg/kg/injection, schedule: Q01DX005 (ip), vehicle: saline
  T/C: 126 % of control [5 of 6 alive]
T/C endpoint: mean survival time, dose: 60.0 mg/kg/injection, schedule: Q08DX002 (oral), vehicle: saline
  T/C: 140 % of control
[1]
  T/C: 141 % of control
  survivor count: 6 of 6
T/C endpoint: mean survival time, dose: 64.0 mg/kg/injection, schedule: Q01DX001 (ip), vehicle: saline with Tween-80
  T/C: 147 % of control
T/C endpoint: mean survival time, dose: 80.0 mg/kg/injection, schedule: Q01DX001 (ip), vehicle: saline
  T/C: 141 % of control
T/C endpoint: mean survival time, dose: 97.0 mg/kg/injection, schedule: Q01DX001 (ip), vehicle: saline with Tween-80
  T/C: 134 % of control
T/C endpoint: mean survival time, dose: 100.0 mg/kg/injection, schedule: Q01DX005 (ip), vehicle: saline
  survivor count: 6 of 6
T/C endpoint: mean survival time, dose: 120.0 mg/kg/injection, schedule: Q08DX002 (oral), vehicle: saline
  T/C: 131 % of control
T/C endpoint: mean survival time, dose: 125.0 mg/kg/injection, schedule: Q01DX015 (ip), vehicle: carboxymethylcellulose (CMC)
  survivor count: 4 of 6
[2]
  T/C: 134 % of control
  survivor count: 2 of 6
T/C endpoint: mean survival time, dose: 240.0 mg/kg/injection, schedule: Q08DX002 (oral), vehicle: saline
  T/C: 136 % of control
T/C endpoint: mean survival time, dose: 250.0 mg/kg/injection, schedule: Q01DX015 (ip), vehicle: carboxymethylcellulose (CMC)
  survivor count: 2 of 6
T/C endpoint: mean survival time, dose: 480.0 mg/kg/injection, schedule: Q08DX002 (oral), vehicle: saline
  T/C: 128 % of control
T/C endpoint: mean survival time, dose: 500.0 mg/kg/injection, schedule: Q01DX015 (ip), vehicle: carboxymethylcellulose (CMC)
  survivor count: 0 of 6
T/C endpoint: median survival time, dose: 0.12 mg/kg/injection, schedule: Q03HX024 (ip), vehicle: saline
  T/C: 127 % of control
T/C endpoint: median survival time, dose: 0.13 mg/kg/injection, schedule: Q03HX024 (ip), vehicle: saline
  T/C: 127 % of control
T/C endpoint: median survival time, dose: 0.25 mg/kg/injection, schedule: Q03HX024 (ip), vehicle: saline, evaluated on day 5
  T/C: 127 and 132 % of control
T/C endpoint: median survival time, dose: 0.25 mg/kg/injection, schedule: Q03HX024 (ip), vehicle: saline, evaluated on day 30
  T/C: 127 % of control
T/C endpoint: median survival time, dose: 0.25 mg/kg/injection, schedule: Q03HX024 (ip), vehicle: saline, evaluated on day 33
  T/C: 132 % of control
T/C endpoint: median survival time, dose: 0.5 mg/kg/injection, schedule: Q03HX024 (ip), vehicle: saline, evaluated on day 5
  T/C: 137 and 149 % of control
T/C endpoint: median survival time, dose: 0.5 mg/kg/injection, schedule: Q03HX024 (ip), vehicle: saline, evaluated on day 30
  T/C: 137 % of control [7 of 8 alive]
T/C endpoint: median survival time, dose: 0.5 mg/kg/injection, schedule: Q03HX024 (ip), vehicle: saline, evaluated on day 33
  T/C: 149 % of control
T/C endpoint: median survival time, dose: 1.0 mg/kg/injection, schedule: Q03HX024 (ip), vehicle: saline, evaluated on day 5
  T/C: 159 and 165 % of control
T/C endpoint: median survival time, dose: 1.0 mg/kg/injection, schedule: Q03HX024 (ip), vehicle: saline, evaluated on day 30
  T/C: 159 % of control
T/C endpoint: median survival time, dose: 1.0 mg/kg/injection, schedule: Q03HX024 (ip), vehicle: saline, evaluated on day 33
  T/C: 165 % of control
T/C endpoint: median survival time, dose: 2.0 mg/kg/injection, schedule: Q03HX024 (ip), vehicle: saline, evaluated on day 5
  T/C: 104, 108, 146, 183 % of control
T/C endpoint: median survival time, dose: 2.0 mg/kg/injection, schedule: Q03HX024 (ip), vehicle: saline, evaluated on day 30
  T/C: 108 and 183 % of control
T/C endpoint: median survival time, dose: 2.0 mg/kg/injection, schedule: Q03HX024 (ip), vehicle: saline, evaluated on day 33
  T/C: 104 and 146 % of control
T/C endpoint: median survival time, dose: 4.0 mg/kg/injection, schedule: Q03HX024 (ip), vehicle: saline, evaluated on day 5
  T/C: 82, 102, 115, 127 % of control
T/C endpoint: median survival time, dose: 4.0 mg/kg/injection, schedule: Q03HX024 (ip), vehicle: saline, evaluated on day 30
  T/C: 115 and 127 % of control
T/C endpoint: median survival time, dose: 4.0 mg/kg/injection, schedule: Q03HX024 (ip), vehicle: saline, evaluated on day 33
  T/C: 102 % of control
T/C endpoint: median survival time, dose: 4.0 mg/kg/injection, schedule: Q03HX024 (ip), vehicle: saline
  survivor count: 8 of 8
T/C endpoint: median survival time, dose: 8.0 mg/kg/injection, schedule: Q03HX024 (ip), vehicle: saline, evaluated on day 5
  T/C: 123 and 124 % of control
T/C endpoint: median survival time, dose: 8.0 mg/kg/injection, schedule: Q03HX024 (ip), vehicle: saline, evaluated on day 30
  T/C: 124 % of control
T/C endpoint: median survival time, dose: 8.0 mg/kg/injection, schedule: Q03HX024 (ip), vehicle: saline, evaluated on day 33
  T/C: 123 % of control
T/C endpoint: median survival time, dose: 16.0 mg/kg/injection, schedule: Q03HX024 (ip), vehicle: saline, evaluated on day 5
  T/C: 142 and 160 % of control
T/C endpoint: median survival time, dose: 16.0 mg/kg/injection, schedule: Q03HX024 (ip), vehicle: saline, evaluated on day 30
  T/C: 160 % of control
T/C endpoint: median survival time, dose: 16.0 mg/kg/injection, schedule: Q03HX024 (ip), vehicle: saline, evaluated on day 33
  T/C: 142 % of control
